In the test the test system is HepG2 cells. Description: HepG2 cytotoxicity assay (CellTiter Glo). It counts as cell-based, human. Particulars: positive control, HepG2, 72 h. A general note: Cellular ATP, detected with luciferase, serves as a proxy for viable cell number.

Each structure is given as a SMILES string.

The values that follow come from patent US10550091B2, “1,4,5-substituted 1,2,3-triazole analogues as antagonists of the pregnane X receptor” (ST. JUDE CHILDREN'S RESEARCH HOSPITAL, priority 2016, dated 2020).

As usually defined, the IC50 is the concentration at which inhibition is half-maximal. A higher IC50 goes with lower potency. `CN[C@@H]1C[C@H]2O[C@@](C)([C@@H]1OC)n1c3ccccc3c3c4c(c5c6ccccc6n2c5c31)C(=O)NC4` [Staurosporine, reference compound]: the IC50 turned out to be 96 nM.
